According to patent publication US20130040331A1, “LABEL-FREE METHODS RELATED TO hERG POTASSIUM ION [sequence]” (CORNING INCORPORATED, priority 2009, published 2013):

System: mallotoxin DMR signal in HT29 cells
Assay: DMR modulation index against the mallotoxin DMR signal in HT29 cells
Type: cell-based, human
Settings: 10% modulation = 1 score unit
Source text: A “molecule modulation index” or like terms is an index to display the ability of the molecule to modulate the biosensor output signals of the panels of markers acting on the panel of cells. The modulation index is generated by normalizing a specific biosensor output signal parameter of a response of a cell upon stimulation with a marker in the presence of a molecule against that in the absence of any molecule.
Epic® wavelength interrogation system (Corning Inc., Corning, N.Y.) was used for whole cell sensing. This system consists of a temperature-control unit, an optical detection unit, and an on-board liquid handling unit with robotics. The detection unit is centered on integrated fiber optics, and enables kinetic measures of cellular responses with a time interval of ˜15 sec.
Cells were plated in 384-well Epic® cell culture treated plate (Corning Cat#5040) 16-20 hours before assay (15000 cells/well for HEK293 and HEK-hERG cells, 30000 cells/well for HT29 cells). […] For each assay, a 2-min baseline was initiated, followed by addition of 10 μl compound solutions (5×) and the cell responses were recorded continuously for one hour.
All studies were carried out at a controlled temperature (28° C.). […] All dose-dependent responses were analyzed using non-linear regression method with the GraphPad Prism 5. […]

## O=C(O)c1cc(-c2ccc(F)cc2F)ccc1O [diflunisal]
  score of modulation index in coordination, HT29 coordinate: −9

## O=C(O)c1ccccc1Nc1cccc(C(F)(F)F)c1 [flufenamic acid]
  score of modulation index in coordination, HT29 coordinate: −9
